Assay results reported in PubChem BioAssay AID504444 (National Center for Advancing Translational Sciences (NCATS), 2011).
Hit rate of the full screen: of about 360,000 compounds, about 7,500 (2.1%) were called active. Inconclusive results, whose numbers are uncertain, are shown with a selection of clear calls. Calls follow the shape of the dose curve; as a rule, active = well fitted inhibition curve with a large enough effect; inconclusive = small, poorly fitted or top-dose-only effect, or effect the other way; inactive = flat fitted curve, though single readings scatter. Where the call is inconclusive, the potency comes from a doubtful curve fit.

Assay: Nrf2 qHTS screen for inhibitors; also: nearly all actives have a fitted effect of over 60% in size
Conditions: A549 ARE-Fluc reporter, luciferase luminescence, 18-24 h; activity change, negative = inhibition: at 46 µM (top of the series)
Procedure, shortened: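 Cells were seeded and rested 2 h, then exposed to compounds for 18-24 h. CellTiter-Fluor was read first as a viability measure. BugLite was added 15 min before the final luminescent read of ARE-luciferase activity in A549 cells.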
% is scaled to controls: 0 for no effect and ±100 for the full control effect; potency is read from the fitted curve at half-maximal effect.

| SMILES | Potency | activity change, negative = inhibition |
| --- | --- | --- |
| CC(C)=C1C2CCC1C1C(=O)N(NC(=O)COc3ccc(Cl)c(C)c3)C(=O)C21 (stereo not drawn) | inconclusive: 32.6 µM [falling, single point] |  |
| Cc1ccn2cc(-c3cc4ccccc4oc3=O)nc2c1 | inconclusive: 0.0146 µM [activator, full curve, poor fit] |  |
| O=C1S/C(=C\c2cccs2)C(=O)N1c1ccc(O)cc1 | inconclusive: 3.66 µM [activator, single point] |  |
| NC1=NC(=O)C2(COC(c3ccncc3)OC2)S1 (stereo not drawn) | inconclusive: 4.61 µM [falling, single point] |  |
| COc1ccc(OC)c(CN2CCN(C(=O)c3ccc(S(=O)(=O)Nc4ccccc4F)cc3)CC2)c1 | inconclusive: 18.4 µM [falling, single point] |  |
| O=C(c1cc2cc(F)ccc2[nH]1)N1CCN(c2ccc(F)cc2)CC1 |  | inactive: 2.46% |
| CSc1nc2sc3c(c2c(=O)n1-c1ccc(C)c(Cl)c1)CCN(C(C)=O)C3 |  | inactive: -5.75% [at 9.27 µM] |
| CCOC(=O)/C=C1\SCC(=O)N1CC(=O)Nc1ccc2c(c1)CCC2 | inconclusive: 0.461 µM [falling, full curve, poor fit] |  |
| Cc1cccc(NC(=O)CSc2nc3c(oc4ccccc43)c(=O)n2-c2ccccc2)c1 | inconclusive: 4.11 µM [falling, full curve, poor fit] |  |
| CC/C(=C\c1ccc(Cl)cc1)c1ccncc1 |  | inactive: 10.8% |
| O=C(Nc1ccc(N2CCCCC2)cc1)c1ccc(F)cc1F | inconclusive: 2.59 µM [activator, partial curve, poor fit] |  |
| CCCCN(C(=O)c1cccc2c(=O)c(C)c(-c3ccccc3)oc12)c1ccccc1 | inconclusive: 20.6 µM [falling, single point] |  |
| Cc1ccc(NC(=O)CSc2ccccc2NC(=O)c2ccccc2Cl)cc1Cl | active: 25.9 µM |  |
| Cc1ccc(N/N=C(\C#N)C(=N)N2CCOCC2)cc1 | inconclusive: 11.6 µM [activator, partial curve] |  |
| CCN1/C(=C/c2ccc3cc(C)ccc3[n+]2CC)Sc2cc(C)c(C)cc21 | active: 1.3 µM |  |
| COC(=O)c1ccc(NC(=O)CCc2c(C)nn(-c3ccc(N4CCCC4)nn3)c2C)cc1 | inconclusive: 11.6 µM [activator, partial curve, poor fit] |  |
| Cc1cccc(NC(=O)c2ccc3c(Cl)c4c(nc3c2)CCCC4)n1 | inconclusive: 4.61 µM [activator, partial curve] |  |
| O=C(c1ccc(F)cc1)C1CCN(C(=O)Nc2ccc(F)cc2)CC1 | inconclusive: 9.2 µM [falling, partial curve] |  |

Record cards, from the list above.
CC/C(=C\c1ccc(Cl)cc1)c1ccncc1 is listed with activity change, negative = inhibition: inactive: 10.8%
O=C(c1cc2cc(F)ccc2[nH]1)N1CCN(c2ccc(F)cc2)CC1 is listed with activity change, negative = inhibition: inactive: 2.46%
